These are yes or no findings as the source states them, for the method shown. Some results given as binding are weak or reduced against the parent protein; the word gives no strength.
Biological target: Ska3 V58I (human) (UniProt Q8IX90)
Assay: co-purification (co-expression, glutathione affinity, size-exclusion chromatography); Ska1, Ska2 (His-GST) and Ska3 co-expressed in E. coli BL21 Gold; captured on glutathione sepharose, tags cleaved, Superose 6 in 20 mM Tris pH 8, 100 mM NaCl, 5 mM DTT; subunits seen on SDS-PAGE

By UniProt entry, the sequences of proteins in these tests, tags left out. Where a name states a change or a piece, a line headed by the entry shows the natural chain unless it says otherwise. Chains listed by the source or under a name are the forms on record and can include a tag or linker.
UniProt Q8IX90: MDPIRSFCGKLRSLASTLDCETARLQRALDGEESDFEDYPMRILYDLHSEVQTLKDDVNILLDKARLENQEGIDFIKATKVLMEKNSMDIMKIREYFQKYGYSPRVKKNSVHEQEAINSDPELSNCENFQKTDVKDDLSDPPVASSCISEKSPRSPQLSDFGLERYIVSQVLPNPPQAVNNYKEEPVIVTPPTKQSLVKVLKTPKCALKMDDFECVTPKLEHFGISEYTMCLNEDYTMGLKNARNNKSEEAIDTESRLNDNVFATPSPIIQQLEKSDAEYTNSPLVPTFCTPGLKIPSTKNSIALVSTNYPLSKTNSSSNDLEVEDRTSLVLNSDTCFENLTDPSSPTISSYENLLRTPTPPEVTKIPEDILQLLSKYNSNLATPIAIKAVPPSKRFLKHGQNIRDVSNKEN
UniProt Q96BD8: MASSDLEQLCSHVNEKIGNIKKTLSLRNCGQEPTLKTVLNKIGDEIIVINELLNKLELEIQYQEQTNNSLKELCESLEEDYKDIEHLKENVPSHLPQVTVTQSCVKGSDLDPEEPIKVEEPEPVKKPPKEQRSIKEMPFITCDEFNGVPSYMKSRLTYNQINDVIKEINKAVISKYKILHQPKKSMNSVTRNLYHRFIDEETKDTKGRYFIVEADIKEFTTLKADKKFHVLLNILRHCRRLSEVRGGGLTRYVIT
Ska1 K135/203/206A (Q96BD8, form named): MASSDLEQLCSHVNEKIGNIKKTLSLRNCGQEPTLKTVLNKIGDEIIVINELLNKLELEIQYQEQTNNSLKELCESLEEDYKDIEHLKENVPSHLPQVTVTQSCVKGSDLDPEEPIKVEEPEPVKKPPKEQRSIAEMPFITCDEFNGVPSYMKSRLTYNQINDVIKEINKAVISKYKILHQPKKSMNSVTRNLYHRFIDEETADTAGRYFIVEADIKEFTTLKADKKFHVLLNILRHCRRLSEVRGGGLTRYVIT
Ska1 K170/177A (Q96BD8, form named): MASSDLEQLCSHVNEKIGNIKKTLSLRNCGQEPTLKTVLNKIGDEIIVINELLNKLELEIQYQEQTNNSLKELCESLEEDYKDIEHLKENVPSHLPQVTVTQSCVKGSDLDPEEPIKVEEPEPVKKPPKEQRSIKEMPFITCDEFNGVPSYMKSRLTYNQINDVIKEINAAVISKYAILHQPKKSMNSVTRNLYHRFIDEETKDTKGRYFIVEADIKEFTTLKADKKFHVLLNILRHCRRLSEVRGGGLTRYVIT
Ska1 K183/184/203/206/217/223/226/227/R236/245A (Q96BD8, form named): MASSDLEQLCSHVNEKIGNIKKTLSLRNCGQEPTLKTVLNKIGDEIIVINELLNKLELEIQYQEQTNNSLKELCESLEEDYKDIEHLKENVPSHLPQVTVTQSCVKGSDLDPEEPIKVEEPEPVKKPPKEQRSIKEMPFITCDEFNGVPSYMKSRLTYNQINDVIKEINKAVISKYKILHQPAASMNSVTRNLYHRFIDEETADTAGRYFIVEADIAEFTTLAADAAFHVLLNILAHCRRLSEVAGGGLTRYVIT
Ska1 K183/184/203/206A (Q96BD8, form named): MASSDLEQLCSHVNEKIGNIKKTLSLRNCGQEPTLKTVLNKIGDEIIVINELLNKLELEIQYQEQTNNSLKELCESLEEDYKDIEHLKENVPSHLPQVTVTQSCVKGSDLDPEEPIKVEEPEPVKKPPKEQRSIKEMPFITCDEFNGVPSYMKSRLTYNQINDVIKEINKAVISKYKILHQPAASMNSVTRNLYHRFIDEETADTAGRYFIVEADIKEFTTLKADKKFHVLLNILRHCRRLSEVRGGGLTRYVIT
Ska1 K217/223/226/227A (Q96BD8, form named): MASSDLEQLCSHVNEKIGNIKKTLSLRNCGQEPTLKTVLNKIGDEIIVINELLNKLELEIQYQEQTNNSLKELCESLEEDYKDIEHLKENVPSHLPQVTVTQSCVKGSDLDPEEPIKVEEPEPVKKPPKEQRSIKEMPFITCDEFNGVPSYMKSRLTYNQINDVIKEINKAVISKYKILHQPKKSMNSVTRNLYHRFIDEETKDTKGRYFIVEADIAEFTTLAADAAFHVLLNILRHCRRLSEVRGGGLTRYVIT
Ska1 R155/236/245A (Q96BD8, form named): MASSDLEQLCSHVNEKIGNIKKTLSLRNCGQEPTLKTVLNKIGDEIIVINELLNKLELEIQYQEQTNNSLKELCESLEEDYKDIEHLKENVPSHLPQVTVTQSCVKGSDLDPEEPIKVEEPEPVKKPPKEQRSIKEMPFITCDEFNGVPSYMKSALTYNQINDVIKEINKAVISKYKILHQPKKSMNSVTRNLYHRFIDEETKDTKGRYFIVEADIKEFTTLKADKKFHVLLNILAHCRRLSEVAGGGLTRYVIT
Ska1 R236/245A (Q96BD8, form named): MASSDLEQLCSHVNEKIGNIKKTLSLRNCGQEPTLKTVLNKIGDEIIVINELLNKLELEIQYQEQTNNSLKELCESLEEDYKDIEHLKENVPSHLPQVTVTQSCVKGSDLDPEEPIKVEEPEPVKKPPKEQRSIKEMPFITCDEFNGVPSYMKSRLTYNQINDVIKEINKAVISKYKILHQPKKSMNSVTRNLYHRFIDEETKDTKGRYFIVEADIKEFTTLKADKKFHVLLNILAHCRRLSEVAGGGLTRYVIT

Substance | binding
Ska1 K183/184/203/206/217/223/226/227/R236/245A (from UniProt Q96BD8 1-255) | binds
Ska1 K217/223/226/227A (from UniProt Q96BD8 1-255) | binds
Ska1 R236/245A (from UniProt Q96BD8 1-255) | binds
Ska1, wild type, full length (from UniProt Q96BD8 1-255) | binds

Next, values leading:

binding | Substance
binds | Ska1 K135/203/206A (from UniProt Q96BD8 1-255)
binds | Ska1 K170/177A (from UniProt Q96BD8 1-255)
binds | Ska1 K183/184/203/206A (from UniProt Q96BD8 1-255)
binds | Ska1 R155/236/245A (from UniProt Q96BD8 1-255)
